We go through two molecules from article PMC5006124.

Chains of the proteins cited; added tags and fusions are not shown. Residues count along the entry.
UniProt Q99IB8, residues 1977-2442: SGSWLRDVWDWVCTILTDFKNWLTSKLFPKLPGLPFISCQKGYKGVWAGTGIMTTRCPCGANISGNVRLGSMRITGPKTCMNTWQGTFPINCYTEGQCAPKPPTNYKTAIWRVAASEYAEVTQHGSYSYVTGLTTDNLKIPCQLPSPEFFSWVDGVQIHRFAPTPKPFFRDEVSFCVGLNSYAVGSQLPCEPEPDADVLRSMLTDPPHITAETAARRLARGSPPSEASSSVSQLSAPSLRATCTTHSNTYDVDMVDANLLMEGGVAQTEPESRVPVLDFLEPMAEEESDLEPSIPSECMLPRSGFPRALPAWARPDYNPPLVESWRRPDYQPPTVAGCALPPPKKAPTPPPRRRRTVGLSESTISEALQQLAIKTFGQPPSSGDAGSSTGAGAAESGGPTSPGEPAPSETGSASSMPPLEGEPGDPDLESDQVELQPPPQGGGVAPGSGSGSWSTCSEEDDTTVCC

No constants are given. Whether binding was seen depends on the method and setting. Binding seen in cells or lysates may run through a third protein. Some results given as binding are weak or reduced against the parent protein; the word gives no strength. Sequences can lack the tags named with a protein.

Experiment [1] deals with HCV NS5A fused to the GlucC fragment of Gaussia luciferase (BiLC reporter construct) (hepatitis C virus) (UniProt Q99IB8). Put plainly: split reporter; BiLC (bi-molecular luminescence complementation) with split Gaussia luciferase; TRIM14-GlucN and HCV protein-GlucC plasmids co-transfected into HEK293T cells, luciferase activity read.
Experiment [2] has as its target Flag-tagged HCV non-structural protein NS5A (hepatitis C virus) (UniProt Q99IB8). The experiment in a line: co-IP; HEK293T co-transfected with HA-tagged TRIM14 or truncations and Flag-tagged HCV proteins, 24 h; lysis in 20 mM Tris pH 8.0, 150 mM NaCl, 1% TritonX-100, 1 mM EDTA; immunoprecipitated using anti-Flag, 4 °C, 6-8 hours; western blot.

B1: TRIM14 fused to the GlucN fragment of Gaussia luciferase (BiLC reporter construct) (protein, UniProt Q14142 1-442)
chain: MAGAATGSRTPGRSELVEGCGWRCPEHGDRVAELFCRRCRRCVCALCPVLGAHRGHPVGLALEAAVHVQKLSQECLKQLAIKKQQHIDNITQIEDATEKLKANAESSKTWLKGKFTELRLLLDEEEALAKKFIDKNTQLTLQVYREQADSCREQLDIMNDLSNRVWSISQEPDPVQRLQAYTATEQEMQQQMSLGELCHPVPLSFEPVKSFFKGLVEAVESTLQTPLDIRLKESINCQLSDPSSTKPGTLLKTSPSPERSLLLKYARTPTLDPDTMHARLRLSADRLTVRCGLLGSLGPVPVLRFDALWQVLARDCFATGRHYWEVDVQEAGAGWWVGAAYASLRRRGASAAARLGCNRQSWCLKRYDLEYWAFHDGQRSRLRPRDDLDRLGVFLDYEAGVLAFYDVTGGMSHLHTFRATFQEPLYPALRLWEGAISIPRLP
As to B1, in experiment [1], the binding result is “binds”.

B2: HA-tagged TRIM14 (tripartite motif 14) (protein, UniProt Q14142 1-442)
chain: B1 chain
B2: in experiment [2], the binding entry is recorded as “binds”.
